Data taken from patent US12629345B2, “Methods, compositions, and devices for drug / live cell microarrays” (Pathak Holdings LLC, priority 2013, dated 2026).
For at least one compound, name, drawing or mass did not settle the structure.

Experiment: In vitro moxifloxacin release from PLGA microimplant array formed in situ in sheep skin tissue
Assay type: physicochemical

COc1c(N2C[C@@H]3CCCN[C@@H]3C2)c(F)cc2c(=O)c(C(=O)O)cn(C3CC3)c12 [moxifloxacin]
period over which the drug is released from the PLGA array (Example 14A, direct injection of PLGA/moxifloxacin solution via 33 MP hollow microneedle array, sheep tissue, PBS, FIG. 12): 200 h
duration of drug release from the precipitated polymer (Example 14B, cavities made first then filled with PLGA/moxifloxacin solution, FIG. 10): several hours
period of the release profile from the formed PLGA implants (Example 14C, 33 MP array pressed through polymer solution layer, 135 cavities, FIG. 11): 10 days
